The numbers were not newly measured in US11116748B2, “Compositions and methods for reducing weight gain” (THE MEDICAL COLLEGE OF WISCONSIN, INC., priority 2018, dated 2021), which cites them from elsewhere.

The test system of the series is gut microbiome. The conditions noted are these: risperidone treatment; cited from earlier work.

Take `Cc1nc2n(c(=O)c1CCN1CCC(c3noc4cc(F)ccc34)CC1)CCCC2` [risperidone]: the “observed taxa in the gut microbiome” value is reported as “overall reduction in observed taxa”.
